This experiment can be described thus: qHTS Assay to Find Inhibitors of Chronic Active B-Cell Receptor Signaling. The conditions noted are these: ABC-DLBCL IkBa-CBG/CBR reporter, luminescence ratio (green luciferase fused to IkBa over red control in TMD8 lymphoma cells), 4 h. Put shortly: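 Cell line TMD8 (human ABC DLBCL), stably expressing tet-inducible CBG68-IkBa fusion and CBR; IMDM/0.5% FBS; cpd up to 46 uM; dox induction, 4 h, 37C/5% CO2; dual luminescence; green/red ratio; MG132 control.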
A general note: qHTS replaces the single test concentration by a dilution series.

Where [1] appears, read: measured here: CBR red luminescence, cell number.
Where [2] appears, read: measured here: IkBa-CBG green luminescence.

The other results are listed elsewhere or left out. Further columns of the screen follow, without active or inactive calls. Most of these compounds were active or inconclusive in the main read-out, so they are no random draw. Potencies come from curve fits of mixed quality, noted in brackets.

As for `Cc1cc(OCC(=O)Nc2ccc(CN3CCOCC3)cc2)ccc1Cl`, under setting [1], the half-maximal activity concentration (AC50) (as a rule, the midpoint of the concentration-response curve, whichever way the signal moves) was 12.6 µM [falling, partial curve].
The same measure, in the same setting: the result for `CN(C)c1ccc(-c2cc3ccccc3c(=O)o2)cc1` reads 0.259 µM [rising, full curve, poor fit]; that for `Cc1cc2oc(=O)cc(CN(C)Cc3ccccc3Cl)c2cc1C`, 10 µM [rising, partial curve, poor fit]; that for `CCN(CC)C(=O)C(C)N(C#N)c1nc(NC(C)C)nc(NC(C)C)n1` (stereo unspecified), 0.00461 µM [rising, full curve, poor fit].
For the molecule `Cn1c(=O)c(=O)n(C)c2cc(S(=O)(=O)Nc3ccc4c(c3)OCCO4)ccc21`, the AC50 under setting [1] is 32.6 µM [falling, single point].
For `COc1ccc(NC(=O)CSc2nc(C)cs2)c([N+](=O)[O-])c1`, under setting [1], the AC50 was 5.8 µM [rising, partial curve, poor fit].
For `COc1cc(NC(=O)CN(c2cc(C)cc(C)c2)S(=O)(=O)c2c(C)noc2C)cc(OC)c1`, the AC50 is 7.31 µM [falling, partial curve] under setting [1] and 18.4 µM [rising, partial curve, poor fit] under setting [2].
In the case of `Cn1cc(CN2CCCC(C(=O)c3cc(F)ccc3F)C2)c2ccccc21` (stereo unspecified), the AC50 under setting [1] was 20 µM [falling, single point].
On to `O=C(COC(=O)Cc1ccccc1F)Nc1cccc(F)c1`, for which the AC50 under setting [1] was 22.4 µM [rising, partial curve, poor fit].
The same measure, in the same setting: the result for `COc1cccc(NC(=O)Nc2ccc(C(C)(C)C)cc2)c1` reads 20 µM [falling, single point]; that for `Cc1ccc(C(=O)COC(=O)CCC(=O)Nc2cccc(Cl)c2)cc1[N+](=O)[O-]`, 4.47 µM [rising, single point]; that for `COc1ccccc1NC(=O)c1nnn(CC(=O)Nc2cccc(SC)c2)c1N`, 13 µM [falling, partial curve, poor fit].
The same measure, in the same setting: the result for `CCCCC(=O)NC(c1ccccc1)c1ccc2cccnc2c1O` (stereo unspecified) reads 3.55 µM [falling, partial curve, poor fit]; that for `COc1ccc2cnn(-c3ccc(OC(F)(F)Cl)cc3)c(=O)c2c1OC`, 0.794 µM [rising, full curve, poor fit]; that for `COc1ccc(-c2cc3ccccc3n2CC(O)CNC(CO)(CO)CO)cc1` (stereo unspecified), 9.2 µM [falling, single point].
As for `COc1cc2c(cc1OC)CN(C(=O)c1ccc(S(=O)(=O)N3CCCC3)cc1)CC2`, under setting [1], the AC50 is 6.31 µM [rising, single point].
On the same count and under the same terms, the result for `Cc1ccc(CN2C(=O)N/C(=C\c3ccc(N4CCOCC4)cc3)C2=O)cc1` reads 29.1 µM [rising, single point]; that for `CCOC(=O)C1=C(O)c2ccccc2C(=O)/C1=C\c1ccc(C)cc1`, 29.1 µM [falling, single point]; that for `O=C1CCC(C(=O)N2CCOCC2)CN1Cc1ccc(Cl)cc1` (stereo unspecified), 2.82 µM [falling, single point].
With `NNC(=O)CC(=O)NC1(Cc2ccc(O)cc2)CCCCC1`, the AC50 under setting [1] is 35.5 µM [falling, single point].
For `COc1ccc(-c2[nH]n(-c3ccc([N+](=O)[O-])cc3)c(=O)c2C=NCc2ccc(F)cc2)cc1`, the AC50 under setting [1] was 0.206 µM [rising, partial curve, poor fit].
For the molecule `CN(C(=O)c1ccc2c(c1)OCO2)C1CCCCC1`, under setting [1], the AC50 is 11.2 µM [falling, partial curve, poor fit].
Turning to `Cc1ccc(C(=O)NCC(=O)OC(C)C(=O)NCCC2=CCCCC2)cc1C` (stereo unspecified), under setting [1], the AC50 was 11.6 µM [rising, partial curve, poor fit].
With `Cc1ccc(Sc2c([N+](=O)[O-])c(=O)n(C)c3ccccc23)cc1`, under setting [1], the AC50 was 11.2 µM [falling, partial curve, poor fit].
On the same count and under the same terms, the result for `O=C(Nc1ccc2c(c1)OCCO2)c1oc2ccccc2c1NC(=O)C1CC1` reads 0.708 µM [falling, full curve]; that for `C=CCN1C(=O)c2ccc(C(=O)N3CCN(S(=O)(=O)c4ccc(C(C)C)cc4)CC3)cc2C1=O`, 1.16 µM [falling, full curve].
The same measure, in the same setting: the result for `COc1ccc(NC(=O)C2Cc3ccccc3CN2C(=O)c2ccco2)cc1` (stereo unspecified) reads 2 µM [rising, partial curve, poor fit]; that for `COc1ccccc1CCNC(=O)NC1CCCCC1`, 10 µM [falling, partial curve]; that for `O=C(O)Cn1cnc2c(oc3ccccc32)c1=O`, 12.6 µM [rising, partial curve, poor fit].
Regarding `CCN(CC)S(=O)(=O)c1ccc(OC)c(NC(=O)OCc2ccccc2)c1`, the AC50 is 11.2 µM [rising, partial curve] under setting [1] and 14.1 µM [falling, partial curve, poor fit] under setting [2].
With `O=C(CSc1nc2ccc(Nc3nc(N4CCOCC4)nc(N4CCOCC4)n3)cc2s1)NCc1ccco1`, the half-maximal activity concentration (AC50) under setting [1] was 7.08 µM [falling, partial curve, poor fit].
In the case of `COc1ccc(NC2CCCN(C(=O)CCc3cn[nH]c3)C2)cc1` (stereo unspecified), the AC50 under setting [1] is 20 µM [rising, single point].
In the case of `Cn1c(/N=C/c2c(O)ccc3ccccc23)nc2ccccc21`, under setting [1], the AC50 was 35.5 µM [falling, single point].
On the same count and under the same terms, the result for `O=[N+]([O-])c1cccc(-c2nnc(-c3ccc4c(c3)OCO4)o2)c1` reads 1.46 µM [rising, partial curve, poor fit]; that for `CC(C)N(C(=O)[C@H]1C[C@H](CC(=O)NCCCN(C)C)C(=O)N2CCc3c([nH]c4ccc(Cl)cc34)[C@]12C)C(C)C`, 25.9 µM [falling, single point].
On the same count and under the same terms, the result for `Cn1nc(-c2ccccc2)cc1NC(=O)c1cccs1` reads 10 µM [rising, partial curve, poor fit]; that for `O=C(Nc1cccc(F)c1)c1coc(=O)c(Br)c1`, 29.1 µM [rising, single point]; that for `CCn1cc([N+](=O)[O-])c(C(=O)N2N=C3/C(=C/c4cccs4)CCCC3C2c2cccs2)n1` (stereo unspecified), 20.6 µM [falling, single point].
Consider `O=C(Nc1ccccc1F)c1ccc([N+](=O)[O-])s1`, for which, under setting [1], the AC50 is 15.8 µM [falling, single point].

These data come from PubChem BioAssay AID493014 (National Center for Advancing Translational Sciences (NCATS), 2011).
